From the supplement of paper PMC10849652
The list shows a part of the results.

By UniProt entry, the sequences of proteins in these tests, tags left out. Where a name states a change or a piece, a line headed by the entry shows the natural chain unless it says otherwise.
UniProt Q96T83: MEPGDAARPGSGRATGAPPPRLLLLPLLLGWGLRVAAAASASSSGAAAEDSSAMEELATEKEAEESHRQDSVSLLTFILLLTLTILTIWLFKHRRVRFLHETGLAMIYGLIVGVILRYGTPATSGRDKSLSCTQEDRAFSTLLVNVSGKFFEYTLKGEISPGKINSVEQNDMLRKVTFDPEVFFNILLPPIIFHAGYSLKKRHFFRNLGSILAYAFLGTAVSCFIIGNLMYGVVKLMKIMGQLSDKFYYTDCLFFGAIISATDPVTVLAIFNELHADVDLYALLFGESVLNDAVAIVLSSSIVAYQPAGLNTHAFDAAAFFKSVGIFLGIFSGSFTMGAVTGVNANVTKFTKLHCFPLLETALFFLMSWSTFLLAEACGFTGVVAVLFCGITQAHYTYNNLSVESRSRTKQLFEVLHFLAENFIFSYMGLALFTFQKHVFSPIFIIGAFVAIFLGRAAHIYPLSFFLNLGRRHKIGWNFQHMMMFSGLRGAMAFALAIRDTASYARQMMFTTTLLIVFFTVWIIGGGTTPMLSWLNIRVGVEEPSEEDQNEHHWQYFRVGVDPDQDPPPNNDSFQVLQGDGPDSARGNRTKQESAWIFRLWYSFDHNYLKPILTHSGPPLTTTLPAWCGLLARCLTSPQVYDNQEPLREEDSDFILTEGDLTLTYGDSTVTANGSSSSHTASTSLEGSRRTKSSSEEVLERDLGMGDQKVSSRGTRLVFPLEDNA
UniProt Q8N357: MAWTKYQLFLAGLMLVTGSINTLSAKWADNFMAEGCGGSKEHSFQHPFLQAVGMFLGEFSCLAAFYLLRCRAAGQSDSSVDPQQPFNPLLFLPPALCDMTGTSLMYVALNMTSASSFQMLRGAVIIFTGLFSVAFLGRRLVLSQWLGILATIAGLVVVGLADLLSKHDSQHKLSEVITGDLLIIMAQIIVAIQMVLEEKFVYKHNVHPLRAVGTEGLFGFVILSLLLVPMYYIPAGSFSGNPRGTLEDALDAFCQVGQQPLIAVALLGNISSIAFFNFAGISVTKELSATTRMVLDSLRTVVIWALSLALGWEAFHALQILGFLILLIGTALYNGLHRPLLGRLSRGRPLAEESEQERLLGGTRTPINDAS
UniProt Q6NUK1: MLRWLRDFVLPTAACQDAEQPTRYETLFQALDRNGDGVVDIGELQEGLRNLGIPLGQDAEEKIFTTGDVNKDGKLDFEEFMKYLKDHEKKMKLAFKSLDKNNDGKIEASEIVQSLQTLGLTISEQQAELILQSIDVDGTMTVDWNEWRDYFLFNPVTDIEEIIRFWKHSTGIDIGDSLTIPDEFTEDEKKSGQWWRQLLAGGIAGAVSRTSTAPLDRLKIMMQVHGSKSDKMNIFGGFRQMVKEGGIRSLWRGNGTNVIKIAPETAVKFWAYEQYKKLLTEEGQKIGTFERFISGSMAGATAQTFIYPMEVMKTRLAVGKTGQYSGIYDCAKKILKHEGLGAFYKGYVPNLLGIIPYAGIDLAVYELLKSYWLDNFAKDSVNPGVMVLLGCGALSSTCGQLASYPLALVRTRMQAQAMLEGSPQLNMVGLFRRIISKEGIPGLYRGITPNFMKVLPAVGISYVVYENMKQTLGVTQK
UniProt Q9HBR0: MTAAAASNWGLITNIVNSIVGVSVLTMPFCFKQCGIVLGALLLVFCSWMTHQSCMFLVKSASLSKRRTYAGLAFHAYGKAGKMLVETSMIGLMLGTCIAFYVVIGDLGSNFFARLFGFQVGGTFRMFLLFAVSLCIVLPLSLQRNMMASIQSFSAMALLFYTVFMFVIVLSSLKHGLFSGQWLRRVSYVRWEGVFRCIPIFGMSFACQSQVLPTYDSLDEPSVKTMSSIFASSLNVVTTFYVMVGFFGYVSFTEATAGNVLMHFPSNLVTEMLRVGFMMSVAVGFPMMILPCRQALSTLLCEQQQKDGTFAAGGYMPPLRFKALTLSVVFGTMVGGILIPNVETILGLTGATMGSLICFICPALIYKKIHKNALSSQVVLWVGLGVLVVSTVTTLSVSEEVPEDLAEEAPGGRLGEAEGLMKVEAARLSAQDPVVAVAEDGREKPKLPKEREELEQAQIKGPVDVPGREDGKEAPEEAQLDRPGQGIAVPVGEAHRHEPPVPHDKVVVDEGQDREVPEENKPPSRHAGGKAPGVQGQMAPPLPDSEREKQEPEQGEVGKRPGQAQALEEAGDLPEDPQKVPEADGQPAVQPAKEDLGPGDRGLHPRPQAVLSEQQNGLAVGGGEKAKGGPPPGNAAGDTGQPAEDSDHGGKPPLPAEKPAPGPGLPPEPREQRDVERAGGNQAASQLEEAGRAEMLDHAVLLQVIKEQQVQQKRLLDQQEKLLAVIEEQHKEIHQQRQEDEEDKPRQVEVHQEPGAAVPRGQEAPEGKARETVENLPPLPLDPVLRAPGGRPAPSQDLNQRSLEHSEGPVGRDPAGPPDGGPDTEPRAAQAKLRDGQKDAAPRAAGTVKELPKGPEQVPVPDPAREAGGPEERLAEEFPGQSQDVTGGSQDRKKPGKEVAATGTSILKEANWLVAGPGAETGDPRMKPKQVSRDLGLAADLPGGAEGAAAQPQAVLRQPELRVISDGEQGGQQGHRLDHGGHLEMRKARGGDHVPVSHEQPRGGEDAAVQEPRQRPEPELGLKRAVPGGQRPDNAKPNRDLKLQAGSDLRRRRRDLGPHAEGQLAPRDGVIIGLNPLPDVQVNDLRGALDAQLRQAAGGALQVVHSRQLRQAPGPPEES
UniProt P08195: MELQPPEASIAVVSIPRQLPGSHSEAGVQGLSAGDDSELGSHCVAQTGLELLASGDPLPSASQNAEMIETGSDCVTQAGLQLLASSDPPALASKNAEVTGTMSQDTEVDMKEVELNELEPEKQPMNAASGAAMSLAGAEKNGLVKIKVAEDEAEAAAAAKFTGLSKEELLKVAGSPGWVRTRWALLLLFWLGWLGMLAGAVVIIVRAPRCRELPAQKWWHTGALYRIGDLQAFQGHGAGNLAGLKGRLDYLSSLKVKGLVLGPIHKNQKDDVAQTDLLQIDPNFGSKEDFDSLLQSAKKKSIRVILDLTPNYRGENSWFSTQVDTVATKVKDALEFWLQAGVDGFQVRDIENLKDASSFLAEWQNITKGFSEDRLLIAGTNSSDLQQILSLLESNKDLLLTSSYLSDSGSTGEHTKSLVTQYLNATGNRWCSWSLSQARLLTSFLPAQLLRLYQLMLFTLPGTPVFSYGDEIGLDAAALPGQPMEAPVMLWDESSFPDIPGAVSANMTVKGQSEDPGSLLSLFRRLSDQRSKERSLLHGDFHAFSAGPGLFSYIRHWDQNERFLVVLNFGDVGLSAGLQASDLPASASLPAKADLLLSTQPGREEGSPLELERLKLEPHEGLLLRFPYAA
UniProt P02730: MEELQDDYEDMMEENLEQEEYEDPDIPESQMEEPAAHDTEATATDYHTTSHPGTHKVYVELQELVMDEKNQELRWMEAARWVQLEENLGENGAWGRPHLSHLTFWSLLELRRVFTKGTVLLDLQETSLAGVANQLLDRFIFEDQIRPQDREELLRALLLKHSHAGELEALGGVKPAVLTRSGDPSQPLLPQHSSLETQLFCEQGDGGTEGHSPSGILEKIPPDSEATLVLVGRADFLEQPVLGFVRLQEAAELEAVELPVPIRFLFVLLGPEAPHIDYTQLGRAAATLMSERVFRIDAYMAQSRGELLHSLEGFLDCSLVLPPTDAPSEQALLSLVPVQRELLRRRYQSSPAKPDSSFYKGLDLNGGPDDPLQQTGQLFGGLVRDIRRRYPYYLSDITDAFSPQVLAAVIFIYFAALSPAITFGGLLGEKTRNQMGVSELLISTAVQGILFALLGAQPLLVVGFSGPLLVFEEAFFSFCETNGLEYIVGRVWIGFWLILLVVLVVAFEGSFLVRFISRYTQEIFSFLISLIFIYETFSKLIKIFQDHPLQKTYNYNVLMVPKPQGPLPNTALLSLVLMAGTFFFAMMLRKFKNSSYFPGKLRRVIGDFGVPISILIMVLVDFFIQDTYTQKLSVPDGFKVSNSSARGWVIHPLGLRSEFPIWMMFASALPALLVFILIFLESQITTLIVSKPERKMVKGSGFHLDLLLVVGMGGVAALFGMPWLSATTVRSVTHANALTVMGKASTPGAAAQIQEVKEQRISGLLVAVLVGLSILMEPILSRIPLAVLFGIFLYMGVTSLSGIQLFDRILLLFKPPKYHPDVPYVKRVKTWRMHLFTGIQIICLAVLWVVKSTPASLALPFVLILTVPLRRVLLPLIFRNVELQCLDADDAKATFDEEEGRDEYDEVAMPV
UniProt Q9BQT8: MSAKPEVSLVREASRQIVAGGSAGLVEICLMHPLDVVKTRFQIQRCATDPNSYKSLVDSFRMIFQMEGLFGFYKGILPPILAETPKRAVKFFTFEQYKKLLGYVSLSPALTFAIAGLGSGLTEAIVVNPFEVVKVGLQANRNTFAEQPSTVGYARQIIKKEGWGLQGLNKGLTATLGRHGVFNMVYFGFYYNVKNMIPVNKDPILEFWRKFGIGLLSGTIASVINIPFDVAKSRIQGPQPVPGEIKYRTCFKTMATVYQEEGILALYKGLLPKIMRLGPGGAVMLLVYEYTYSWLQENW
UniProt Q8TB61: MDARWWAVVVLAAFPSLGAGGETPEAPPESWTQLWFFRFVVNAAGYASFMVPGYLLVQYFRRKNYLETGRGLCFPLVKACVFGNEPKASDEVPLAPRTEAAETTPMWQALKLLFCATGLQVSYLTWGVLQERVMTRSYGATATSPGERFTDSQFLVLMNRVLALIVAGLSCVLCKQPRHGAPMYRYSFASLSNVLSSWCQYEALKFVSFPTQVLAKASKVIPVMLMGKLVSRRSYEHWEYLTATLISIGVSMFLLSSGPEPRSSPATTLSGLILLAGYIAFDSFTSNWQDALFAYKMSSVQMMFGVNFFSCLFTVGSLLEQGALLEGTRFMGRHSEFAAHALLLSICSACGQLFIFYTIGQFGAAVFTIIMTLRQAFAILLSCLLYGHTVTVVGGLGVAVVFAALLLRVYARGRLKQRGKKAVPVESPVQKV
UniProt Q9HC21: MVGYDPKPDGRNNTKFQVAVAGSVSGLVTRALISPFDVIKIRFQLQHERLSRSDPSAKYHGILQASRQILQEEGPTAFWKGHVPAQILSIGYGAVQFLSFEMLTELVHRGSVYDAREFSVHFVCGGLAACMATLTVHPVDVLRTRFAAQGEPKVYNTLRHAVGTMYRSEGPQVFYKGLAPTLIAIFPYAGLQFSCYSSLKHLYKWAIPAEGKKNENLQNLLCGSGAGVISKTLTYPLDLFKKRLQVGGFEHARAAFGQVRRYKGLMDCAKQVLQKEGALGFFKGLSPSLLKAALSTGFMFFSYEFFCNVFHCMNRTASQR
UniProt Q8NBW4: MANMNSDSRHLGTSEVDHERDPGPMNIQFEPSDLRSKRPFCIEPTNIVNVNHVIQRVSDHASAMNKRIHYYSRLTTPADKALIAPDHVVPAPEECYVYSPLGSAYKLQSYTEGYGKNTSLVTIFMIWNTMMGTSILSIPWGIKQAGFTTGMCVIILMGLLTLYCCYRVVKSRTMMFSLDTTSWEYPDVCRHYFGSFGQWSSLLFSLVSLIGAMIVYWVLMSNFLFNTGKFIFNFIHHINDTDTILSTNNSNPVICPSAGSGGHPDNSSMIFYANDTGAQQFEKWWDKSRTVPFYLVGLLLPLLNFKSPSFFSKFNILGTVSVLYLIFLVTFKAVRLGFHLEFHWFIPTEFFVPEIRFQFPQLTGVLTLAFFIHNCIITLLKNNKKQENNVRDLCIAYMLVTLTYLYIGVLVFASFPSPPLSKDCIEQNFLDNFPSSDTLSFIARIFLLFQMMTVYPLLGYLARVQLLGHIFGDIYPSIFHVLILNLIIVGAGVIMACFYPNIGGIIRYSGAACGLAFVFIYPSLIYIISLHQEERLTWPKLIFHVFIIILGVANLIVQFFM
UniProt Q9BWU0: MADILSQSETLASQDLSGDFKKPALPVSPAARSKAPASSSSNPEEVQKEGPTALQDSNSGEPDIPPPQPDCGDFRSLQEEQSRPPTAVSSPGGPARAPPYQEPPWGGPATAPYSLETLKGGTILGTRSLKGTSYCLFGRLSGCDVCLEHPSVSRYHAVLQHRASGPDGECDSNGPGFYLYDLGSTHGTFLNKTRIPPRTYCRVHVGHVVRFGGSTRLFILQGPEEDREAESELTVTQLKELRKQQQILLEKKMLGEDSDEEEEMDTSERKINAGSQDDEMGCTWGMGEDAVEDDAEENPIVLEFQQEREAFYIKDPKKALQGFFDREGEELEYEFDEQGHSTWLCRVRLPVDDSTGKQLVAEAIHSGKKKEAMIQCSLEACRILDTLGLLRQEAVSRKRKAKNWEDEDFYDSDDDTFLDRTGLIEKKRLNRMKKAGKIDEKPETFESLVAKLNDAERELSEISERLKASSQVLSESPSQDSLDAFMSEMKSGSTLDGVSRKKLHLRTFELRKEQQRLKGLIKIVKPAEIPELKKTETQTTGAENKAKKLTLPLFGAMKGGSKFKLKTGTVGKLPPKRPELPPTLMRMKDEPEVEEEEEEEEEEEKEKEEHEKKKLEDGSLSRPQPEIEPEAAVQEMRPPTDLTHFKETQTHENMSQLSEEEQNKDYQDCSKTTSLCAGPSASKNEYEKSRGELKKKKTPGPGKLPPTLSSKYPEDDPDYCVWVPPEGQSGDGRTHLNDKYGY

Legend:
Assay in all cases: log2 fold change, soluble protein after heating vs DMSO (PISA); higher = thermal stabilisation; K562 lysate, 10 uM; active = over 0.2 and 3.5 SD of the protein, either way, in both replicates (recomputed)
[1] = compound: C1=CC=C(C=C1)[C@H](COC2=CC3=C(C=C2)NC(=O)N3)NC(=O)C4=CC=CN(C4=O)CC5=CC(=C(C=C5)F)F
Method in brief: (§1)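 To prepare the extract, K562 pellets were dounce-homogenised in PBS pH 7.4 with 1 mM MgCl2, giving crude material at 1 mg/mL protein. This was treated with 10 μM compound for 30 min, then heated in aliquots for 3 min over 48°C-58°C before pooling and addition of NP-40 to 0.5% at 4°C. Centrifugation at 21,000xg for 90 min left soluble protein in the supernatant, which TMTpro 16plex LC-MS/MS quantified with equalised channel sums. Results are log-two fold changes in thermal stability compared with solvent controls, from duplicates.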

[2] = compound: CC1=C(SC2=C1C(=N[C@H](C3=NN=C(N32)C)CC(=O)N)C4=CC=C(C=C4)Cl)C
Method in brief: as §1

[3] = compound: CC1=C2C(=CC=C1)N=C(N(C2=O)C3=CC=CC=C3C)CN4C=NC5=C(N=CN=C54)N
Method in brief: as §1

[4] = compound: Cc1sc2c(c1C)C(c1ccc(Cl)cc1)=N[C@@H](CC(=O)OC(C)(C)C)c1nnc(C)n1-2
Method in brief: as §1

[5] = compound: c1ccc([C@@H]2C[C@H]2NC2CCNCC2)cc1
Method in brief: as §1

[6] = compound: C#Cc1cccc(Nc2ncnc3cc(OCCOC)c(OCCOC)cc23)c1 [erlotinib]
Method in brief: as §1

[7] = compound: C/C(=N\NC(=O)C1=CC(=CC=C1)S(=O)(=O)N2CCOCC2)/C3=C(C=CC(=C3)Cl)O
Method in brief: as §1

[8] = compound: C1=CC(=CC=C1C2=NC3=C(N2)C=C(C=C3)C(=O)N)OC4=CC=C(C=C4)Cl
Method in brief: as §1

[9] = compound: C1=CC2=C(C=CC(=C2)/C=C\3/C(=O)NC(=NCC4=CC=CS4)S3)N=C1
Method in brief: as §1

[10] = compound: C1=CC2=NC=CN=C2C=C1/C=C/3\C(=O)NC(=O)S3
Method in brief: as §1

[11] = compound: C1=CC=C(C=C1)C2=NC(=C(N2)C3=CC=NC=C3)C4=CC(=C(C=C4)Cl)O
Method in brief: as §1

[12] = compound: C1=CC=C2C(=C1)C3=NNC4=CC=CC(=C43)C2=O
Method in brief: as §1

[13] = compound: C1CCN(C1)C(=O)NC2=CC=CC(=C2)NC3=NC=C(C(=N3)NCCC4=CN=CN4)Br
Method in brief: as §1

[14] = compound: C1CN(CCC1(CC2=CC=C(C=C2)Cl)N)C3=NC=NC4=C3C=CN4
Method in brief: as §1

[15] = compound: C1COCCN1CCN2C3=CC=CC=C3N=C2NC(=O)C4=CC(=CC=C4)[N+](=O)[O-] [IRAK-1-4 Inhibitor I]
Method in brief: as §1

[16] = compound: C=CC(=O)N1CCC[C@@H](n2nc(-c3ccc(Oc4ccccc4)cc3)c3c(N)ncnc32)C1 [ibrutinib]
Method in brief: as §1

[17] = compound: CC(=O)c1cnc2ccc(-c3cc(Cl)c(O)c(Cl)c3)nc2c1N[C@H]1CC[C@H](CN(C)C)CC1
Method in brief: as §1

[18] = compound: CC(C)(C)Cn1c(N)nc2ccc(-c3[nH]c(C(C)(C)C)nc3-c3ccc(F)cc3)nc21 [ralimetinib]
Method in brief: as §1

[19] = compound: CC(C)(O)CC(=O)NCCn1ccc2ncnc(Nc3ccc(Oc4cccc(C(F)(F)F)c4)c(Cl)c3)c21
Method in brief: as §1

[20] = compound: CC(C)C1=C2N=C(C=C(N2N=C1)NCC3=CC=CC=C3)NCCCCCCN
Method in brief: as §1

[21] = compound: CC1=C(C(CC(=O)N1)C2=CC=C(C=C2)C(F)(F)F)C(=O)NC3=C(C=C4C(=C3)C=NN4)F
Method in brief: as §1

[22] = compound: CC1=C(C2=C(C=C1)C(=O)C3=CC=CC=C3N2CCCN)C
Method in brief: as §1

[23] = compound: CC1=C(C=C(C=C1)NC(=O)C2=CC(=CC=C2)C(C)(C)C#N)NC3=CC4=C(C=C3)N=CN(C4=O)C
Method in brief: as §1

[24] = compound: CC1=C(C=C(C=C1)NC(=O)C2=CC(=CC=C2)N(C)C)NC(=O)C3=CC=C(C=C3)O
Method in brief: as §1

[25] = compound: CC1=CC=C(C=C1)SC2=C3C=C(SC3=CN=C2)C(=O)N
Method in brief: as §1

[26] = compound: CCCS(=O)(=O)Nc1ccc(F)c(C(=O)c2c[nH]c3ncc(-c4ccc(Cl)cc4)cc23)c1F [vemurafenib]
Method in brief: as §1

[27] = compound: CCCS(=O)(=O)Nc1ccc(F)c(C(=O)c2c[nH]c3ncc(Cl)cc23)c1F
Method in brief: as §1

[28] = compound: CCN(CCCOc1ccc2c(Nc3cc(CC(=O)Nc4cccc(F)c4)[nH]n3)ncnc2c1)CCOP(=O)(O)O [barasertib]
Method in brief: as §1

[29] = compound: CC[C@@H]1C(=O)N(C)c2cnc(Nc3ccc(C(=O)NC4CCN(C)CC4)cc3OC)nc2N1C1CCCC1
Method in brief: as §1

[30] = compound: CC[C@@H]1C(=O)N(C)c2cnc(Nc3ccc(C(=O)N[C@H]4CC[C@H](N5CCN(CC6CC6)CC5)CC4)cc3OC)nc2N1C(C)C [volasertib]
Method in brief: as §1

[31] = compound: CCn1c(C(=O)N(C2CC2)C2CC2)cc2c3c(ncn3C)c(Nc3cc(C)n(C)n3)nc21
Method in brief: as §1

[32] = compound: CCn1cc(-c2ccnc3[nH]c(-c4cccc(CN(C)C)c4)cc23)c(-c2ccc(NC(=O)N(C)C)cc2)n1
Method in brief: as §1

Measured: log2 fold change

SLC9A7 (UniProt Q96T83)
inactive: [1] -0.223 | [2] -0.056

SLC25A51 (UniProt Q9H1U9)
inactive: [1] -0.015 | [2] 0.014 | [3] -0.009 | [4] 0.117 | [5] 0.056

SLIRP (UniProt Q9GZT3)
inactive: [1] 0.015 | [2] 0.001 | [3] 0.061 | [4] -0.011 | [5] -0.04

SLC35C1 (UniProt Q96A29)
inactive: [1] -0.223 | [2] 0.107 | [3] 0.047

SLC35F6 (UniProt Q8N357)
inactive: [1] 0.018 | [2] -0.04 | [3] -0.049 | [4] -0.018 | [5] 0.077

SLC25A24 (UniProt Q6NUK1)
inactive: [1] 0.02 | [2] -0.017 | [3] -0.005 | [4] -0.004 | [5] 0.011

SLC26A6 (UniProt Q9BXS9)
inactive: [1] -0.053 | [2] 0.067 | [3] 0.011 | [4] -0.556 | [5] -0.096

SMAD2 (UniProt Q15796)
inactive: [1] -0.006 | [2] 0.024 | [3] -0.104 | [4] 0.023 | [5] 0

SLC38A10 (UniProt Q9HBR0)
inactive: [1] 0.007 | [2] 0.007 | [3] 0.036 | [4] -0.053 | [5] -0.04

SLC3A2 isoform 3 (UniProt P08195)
inactive: [1] 0.015 | [2] 0.022 | [3] 0.004 | [4] -0.043 | [5] -0.015

SLC4A1 (UniProt P02730)
inactive: [1] -0.009 | [2] 0.017 | [3] 0.127 | [4] -0.039 | [5] 0.025

SLC25A21 (UniProt Q9BQT8)
inactive: [1] 0.053 | [2] -0.015 | [3] -0.026 | [4] -0.051 | [5] -0.095

SLC4A7 isoform 7 (UniProt Q9Y6M7)
inactive: [1] -0.015 | [2] 0.005 | [3] 0.046 | [4] -0.019 | [5] 0.112

SLC4A2 (UniProt P04920)
inactive: [1] 0.042 | [2] -0.001 | [3] -0.01 | [4] 0.074 | [5] 0.017

SLC35B2 (UniProt Q8TB61)
inactive: [1] -0.006 | [2] 0.017 | [3] 0.002 | [4] 0.071 | [5] 0.013

Two consecutive entries already listed, quoted:
SLC9A7 (UniProt Q96T83)
inactive: [1] -0.223 | [2] -0.056

SLC25A51 (UniProt Q9H1U9)
inactive: [1] -0.015 | [2] 0.014 | [3] -0.009 | [4] 0.117 | [5] 0.056

(listing goes on)

SLC25A19 (UniProt Q9HC21)
inactive: [1] 0 | [2] 0.01 | [3] -0.035 | [4] 0.031 | [5] 0.022

SLC38A5 (UniProt Q8WUX1)
inactive: [1] -0.016 | [2] 0.006 | [3] 0.011 | [4] -0.096 | [5] -0.083

SLC43A3 (UniProt Q8NBI5)
inactive: [1] -0.184 | [2] 0.035

SLC38A9 (UniProt Q8NBW4)
inactive: [1] 0.17 | [2] -0.126 | [3] 0.088 | [4] -0.004 | [5] 0.139

SLC38A1 (UniProt Q9H2H9)
inactive: [1] 0.055 | [2] -0.116 | [3] 0.06 | [4] -0.116 | [5] -0.128

SLC22A5 isoform 3 (UniProt O76082)
inactive: [1] 0.128 | [2] 0 | [3] -0.311 | [4] -0.094 | [5] -0.03

SLC25A37 (UniProt Q9NYZ2)
inactive: [1] -0.036 | [2] 0.027 | [3] -0.036 | [4] -0.053 | [5] -0.043

SLC4A1AP (UniProt Q9BWU0)
inactive: [1] 0.01 | [2] 0.036 | [3] 0.004 | [4] -0.032 | [5] -0.024

SLTM (UniProt Q9NWH9)
inactive: [6] -0.05 | [7] 0.123 | [8] 0.035 | [9] 0.009 | [10] -0.014 | [11] 0.004 | [1] 0.016 | [12] -0.039 | [13] -0.027 | [14] 0.011 | [15] -0.027 | [16] -0.021 | [17] -0.032 | [18] 0.02 | [19] -0.01 | [20] -0.048 | [21] -0.058 | [22] 0.052 | [23] -0.016 | [24] 0.008 | [2] 0.021 | [3] 0.004 | [25] 0.002 | [26] -0.011 | [27] -0.002 | [28] 0.011 | [29] 0.022 | [30] -0.01 | [31] 0.031 | [32] -0.05
